36 compounds from PubChem BioAssay AID1487 (National Center for Advancing Translational Sciences (NCATS), 2009) can be followed below.

Each structure is given as a SMILES string. Some of the results follow. Further columns of the screen follow, without active or inactive calls. Compounds called inactive in the main read-out are mostly missing here. The note in brackets gives the kind of curve behind each potency; many fits are weak.

A short description of this experiment: qHTS Assay for Modulators of Lamin A Splicing. Particulars: HeLa LMNA splicing GFP/RFP minigene ratio, 48 h. In a few lines:
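S3 HeLa stable clones carrying a lamin A-EGFP splicing minigene plus DsRed2 were seeded at 600 cells/well in Opti-MEM with 2% FBS, pin-dosed and incubated 48 h at 37°C. Acumen cytometry (488 nm) gave the GFP/RFP total-intensity ratio.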
Background: In qHTS, concentration-response curves come from the screen itself.

Where [1] appears, read: measured here: RFP viability control channel.
The mark [2] stands for this setting: measured here: GFP splicing reporter channel.

As for `COC(=O)[C@@]1(Cc2ccc(F)cc2)[C@H]2c3cc(C(=O)N(C)C)n(Cc4ccc(OC(F)(F)F)cc4)c3C[C@H]2CN1C(=O)c1ccccc1`, the half-maximal activity concentration (AC50) under setting [1] was 35.5 µM [rising, single point].
As to `CC(C)CC(=O)NCC(c1ccc2c(c1)OCO2)N1CCN(c2ccccc2)CC1` (stereo not given), under setting [2], the AC50 is 0.316 µM [falling, partial curve].
Still for that read-out and setting: in the case of `CS(=O)(=O)NNC(=O)c1sccc1OCc1ncc(C(F)(F)F)cc1Cl` it was 12.6 µM [rising, partial curve].
In the case of `COc1ccc(C2C(C(=O)Nc3ccccc3)=C(C)Nc3nc(CCCO)nn32)cc1` (stereo not given), the AC50 under setting [1] is 0.00708 µM [falling, full curve, poor fit].
For `CCOC(=O)c1oc2ccccc2c1NC(=O)c1ccccc1OC`, the AC50 under setting [2] is 35.5 µM [falling, single point].
For `COc1ccc(C(=O)C2CCCN(Cc3cn[nH]c3-c3ccc(F)cc3)C2)cc1OC` (stereo not given), the AC50 under setting [2] is 35.5 µM [falling, single point].
In the case of `Cc1cc(NCCCn2ccnc2)n2ncc(-c3ccccc3)c2n1`, the AC50 under setting [2] was 35.5 µM [rising, single point].
As for `Cc1cccc(-n2c(SCc3ccc(C#N)cc3)nnc2-c2c[nH]c3ccccc23)c1`, the AC50 under setting [1] was 35.5 µM [rising, single point].
Turning to `Cc1ccc(-n2ncc3c(N4CCCCCC4)ncnc32)cc1Cl`, the AC50 under setting [2] was 0.158 µM [falling, full curve, poor fit].
For the compound `CCOc1ccc(S(=O)(=O)NCc2ccc(C)cc2)c2cccnc12`, the AC50 runs as follows: under setting [2], 35.5 µM [rising, single point]; under setting [1], 0.355 µM [falling, partial curve, poor fit].
Consider `N#Cc1ccccc1NC(=O)CSc1nnc(-c2ccc(F)cc2)n1-c1ccccc1`, for which the AC50 is, setting by setting: under setting [2], 12.6 µM [rising, single point]; under setting [1], 14.1 µM [rising, single point].
On to `O=S(=O)(Nc1cccc2c1CCCC2)c1ccc(Cl)cc1`, for which the concentration at half-maximal activity (AC50) under setting [1] is 14.1 µM [rising, partial curve, poor fit].
As for `COc1c(N2C[C@@H]3CCCN[C@H]3C2)c(F)cc2c(=O)c(C(=O)O)cn(C3CC3)c12`, the AC50 under setting [2] is 20 µM [falling, single point].
Still for that read-out and setting: as for `Cc1ccc(C(=O)N/N=C/c2nc3ccccc3n2C)cc1`, the figure is 11.2 µM [falling, single point].
For `COc1cccc2[nH]c3c(N4CCCC(C)C4)ncnc3c12` (stereo not given), the AC50 was 8.91 µM [rising, partial curve] under setting [2] and 20 µM [rising, partial curve, poor fit] under setting [1].
Turning to `COc1ccc(CC(=O)NCC(c2cccs2)S(=O)(=O)c2ccc(F)c(C)c2)cc1` (stereo not given), under setting [1], the AC50 was 25.1 µM [falling, partial curve, poor fit].
On to `Cc1cnc(CNc2nc(-c3ccc(N(C)C)cc3)nc3ccccc23)cn1`, for which the AC50 reads like this: under setting [2], 35.5 µM [falling, single point]; under setting [1], 35.5 µM [falling, single point].
With `O=C(Nc1ccc(Cl)cn1)C1CCCN1S(=O)(=O)c1cccc2ccccc12` (stereo not given), the AC50 under setting [1] was 15.8 µM [rising, single point].
`O=C(NCc1ccc2c(c1)OCO2)c1sccc1Br`: the AC50 under setting [2] is 0.00447 µM [falling, full curve, poor fit].
On to `COC(=O)c1ccc(CNC(=O)COC(=O)Cc2ccsc2)cc1`, for which, under setting [1], the AC50 is 0.00501 µM [falling, full curve, poor fit].
On to `Cc1cc(NC(=O)CSc2nnc(-c3ccccc3)o2)no1`, for which the AC50 under setting [2] was 14.1 µM [rising, partial curve] and the AC50 under setting [1] is 15.8 µM [rising, partial curve].
As for `Cc1ccc2cc3c(N)c4c(C)ccc(C)c4nc3nc2c1`, the AC50 under setting [2] was 35.5 µM [falling, single point].
Take `C=CCSc1nc(N)c2c(C)c(C)sc2n1`: under setting [1], the AC50 is 35.5 µM [rising, single point].
As to `COc1ccccc1CN1C(=O)CN(C2CCCC2)C(=O)C1c1ccc(F)cc1` (stereo not given), the AC50 is 12.6 µM [rising, single point] under setting [2] and 11.2 µM [rising, single point] under setting [1].
Take `Cc1ccc2onc(CC(=O)N3CCN(c4cccc(Cl)c4)CC3)c2c1`: the AC50 under setting [2] was 12.6 µM [falling, partial curve, poor fit].
For `Cc1cc(F)ccc1NC(=O)Cn1cc(S(=O)(=O)NC(C)C)c(S(=O)(=O)NC(C)C)c1`, the AC50 under setting [2] was 0.00282 µM [rising, full curve, poor fit].
For `COc1cc2c(cc1NCc1ccc3c(c1)OCO3)oc1ccccc12`, under setting [1], the AC50 is 10 µM [rising, single point].
Regarding `CN(C)CCCO[C@H]1[C@@H]2OC(C)(C)O[C@@H]2O[C@@H]1[C@H](O)CO`, the AC50 by setting is: under setting [2], 11.2 µM [falling, single point]; under setting [1], 7.94 µM [falling, single point].
Turning to `C=C(C)[C@@H]1CC=C(CN2CCC(N3CCC(C(=O)N4CCCC4)CC3)CC2)CC1`, the AC50 under setting [2] is 31.6 µM [falling, single point].
For `Cc1cc(SC#N)cc(C)c1NC(=O)CCl`, the AC50 by setting is: under setting [2], 35.5 µM [falling, single point]; under setting [1], 35.5 µM [falling, single point].
Turning to `Cc1ccc(S(=O)(=O)N(CC(=O)N2CCc3ccccc3C2)c2cccc(Cl)c2)cc1`, the AC50 under setting [2] is 0.0891 µM [rising, full curve, poor fit].
Regarding `COc1ccc(NC(=O)CNC(=O)Cn2c(C)cc3ccccc3c2=O)c(OC)c1`, the AC50 under setting [1] is 0.891 µM [falling, full curve, poor fit].
Take `Cc1cc(C(=O)NNC(=S)NCc2ccccc2)cs1`: the AC50 under setting [1] was 12.6 µM [rising, single point].
On the same count and under the same terms, as for `COc1ccc(C2NCCc3c2[nH]c2ccccc32)cc1CSc1nc2ccccc2s1` (stereo not given), the figure is 22.4 µM [rising, single point].
As to `Cc1cccc2cc(CN(CC3CCCO3)C(=O)c3ccco3)c3nnnn3c12` (stereo not given), the AC50 was 7.08 µM [falling, full curve, poor fit] under setting [2] and 8.91 µM [falling, partial curve] under setting [1].
Regarding `CCOc1ccc(C(=O)Nc2nnc(SCc3cc(=O)n4ccccc4n3)s2)cc1`, the AC50 under setting [2] is 0.0224 µM [rising, full curve, poor fit].

For orientation: AC50 means the midpoint of the concentration-response curve, whichever way the signal moves.
